Results published in the supplement of paper PMC9233669.
Variants at the floor of the assay are shown more often than the library holds them.

Columns and labels:
biotinyl-Ile-oxazolone = assay: self-aminoacylation, catalytic enhancement (BIO) (fold over background); higher = more active; k-Seq, kA / k0A0; sequences stand for … in GGGAAUGGAUCCACAUCUACGAAUUC…UUCACUGCAGACUUGACGAAGCUG
Outline: (§1)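 Mutagenized RNA pools (0.43 μM; 21-nt variable region) were treated with 2–1250 μM of each biotinyl-aminoacyl-oxazolone. Conditions were 50 μL HEPES/NaCl/KCl/MgCl2/CaCl2 buffer, 5% acetonitrile, pH 6.9–7.0, room temperature, 90 minutes. Catalytic enhancement, the median kA relative to the uncatalyzed rate, was derived from streptavidin capture, qPCR and Illumina sequencing.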

biotinyl-Met-oxazolone = assay: self-aminoacylation, catalytic enhancement (BMO) (fold over background); higher = more active; k-Seq, kA / k0A0; sequences stand for … in GGGAAUGGAUCCACAUCUACGAAUUC…UUCACUGCAGACUUGACGAAGCUG
Outline: as §1

biotinyl-Leu-oxazolone = assay: self-aminoacylation, catalytic enhancement (BLO) (fold over background); higher = more active; k-Seq, kA / k0A0; sequences stand for … in GGGAAUGGAUCCACAUCUACGAAUUC…UUCACUGCAGACUUGACGAAGCUG
Outline: as §1

biotinyl-Trp-oxazolone = assay: self-aminoacylation, catalytic enhancement (BWO) (fold over background); higher = more active; k-Seq, kA / k0A0; sequences stand for … in GGGAAUGGAUCCACAUCUACGAAUUC…UUCACUGCAGACUUGACGAAGCUG
Outline: as §1

biotinyl-Phe-oxazolone = assay: self-aminoacylation, catalytic enhancement (BFO) (fold over background); higher = more active; k-Seq, kA / k0A0; sequences stand for … in GGGAAUGGAUCCACAUCUACGAAUUC…UUCACUGCAGACUUGACGAAGCUG
Outline: as §1

biotinyl-Val-oxazolone = assay: self-aminoacylation, catalytic enhancement (BVO) (fold over background); higher = more active; k-Seq, kA / k0A0; sequences stand for … in GGGAAUGGAUCCACAUCUACGAAUUC…UUCACUGCAGACUUGACGAAGCUG
Outline: as §1

Sequence	self-aminoacylation (biotinyl-Ile-oxazolone)	self-aminoacylation (biotinyl-Met-oxazolone)	self-aminoacylation (biotinyl-Leu-oxazolone)	self-aminoacylation (biotinyl-Trp-oxazolone)	self-aminoacylation (biotinyl-Phe-oxazolone)	self-aminoacylation (biotinyl-Val-oxazolone)
AAGUUUGCUAAUAAUAGCAAG [Fam3.1 aminoacylation ribozyme variant]	1.14	0.923	1.14	0.784	1.65	0.929
AAGUUUGCUAAUAAUCGCAAU [Fam3.1 aminoacylation ribozyme variant]	1.25	1.05	1.01	1.09	0.999	1.09
AAGUUUGCUAAUAAUCUCAAG [Fam3.1 aminoacylation ribozyme variant]	0.9	0.768	0.727	0.999	1.17	0.984
AAGUUUGCUAAUACUCGAAAG [Fam3.1 aminoacylation ribozyme variant]	0.655	0.593	0.679	0.737	0.913	0.609
AAGUUUGCUAAUACUCGCACG [Fam3.1 aminoacylation ribozyme variant]	0.525	0.567	0.49	0.604	0.744	0.604
AAGUUUGCUAAUAGAAGCAAG [Fam3.1 aminoacylation ribozyme variant]	1.03	1.12	0.697	0.802	1.7	1.06
AAGUUUGCUAAUAGACGCAAC [Fam3.1 aminoacylation ribozyme variant]	0.915	0.928	1.04	1.05	1.54	0.928
AAGUUUGCUAAUAGACGUAAG [Fam3.1 aminoacylation ribozyme variant]	0.611	0.438	0.631	0.684	0.615	0.635
AAGUUUGCUAAUAGGCGCACG [Fam3.1 aminoacylation ribozyme variant]	0.981	0.568	0.865	0.485	2.42	0.833
AAGUUUGCUAAUAGUAGUAAG [Fam3.1 aminoacylation ribozyme variant]	1.13	1.3	1.08	1.28	1.45	0.886
AAGUUUGCUAAUAGUCGAAGG [Fam3.1 aminoacylation ribozyme variant]	1.48	1.31	1.04	1.07	1.93	1.02
AAGUUUGCUAAUAGUCGAAUG [Fam3.1 aminoacylation ribozyme variant]	1.09	1.17	0.88	1.17	1.48	0.903
AAGUUUGCUAAUAGUCGCACG [Fam3.1 aminoacylation ribozyme variant]	0.887	0.89	0.847	0.908	1.19	0.825
AAGUUUGCUAAUAGUCGCAGU [Fam3.1 aminoacylation ribozyme variant]	1.33	1.91	1.66	3.14	8.27	1.34
AAGUUUGCUAAUAGUCGCAUA [Fam3.1 aminoacylation ribozyme variant]	1.21	0.936	0.954	1.23	1.58	1.22
AAGUUUGCUAAUAGUCGCCAC [Fam3.1 aminoacylation ribozyme variant]	1.25	1.12	1.29	1.28	1	1.1
AAGUUUGCUAAUAGUCGGAGG [Fam3.1 aminoacylation ribozyme variant]	0.994	1.1	1.11	1.71	1.58	0.997
AAGUUUGCUAAUAGUCGUCAG [Fam3.1 aminoacylation ribozyme variant]	0.795	0.638	0.715	1.26	2.16	0.905
AAGUUUGCUAAUAGUCUCAAA [Fam3.1 aminoacylation ribozyme variant]	1.13	1.03	1.08	0.983	1.77	1.09
AAGUUUGCUAAUAGUCUCAAU [Fam3.1 aminoacylation ribozyme variant]	1.11	0.931	0.834	0.89	1.42	1.14
AAGUUUGCUAAUAGUGGCUAG [Fam3.1 aminoacylation ribozyme variant]	0.811	0.777	0.65	0.748	1.52	0.862
AAGUUUGCUAAUAGUUGCAAA [Fam3.1 aminoacylation ribozyme variant]	1.44	1.35	1.17	1.65	1.69	1.37
AAGUUUGCUAAUCCUCGCAAG [Fam3.1 aminoacylation ribozyme variant]	0.706	0.628	0.725	0.599	0.881	0.733
AAGUUUGCUAAUCGUCGAAAG [Fam3.1 aminoacylation ribozyme variant]	0.971	0.802	0.772	0.986	1.72	0.965
AAGUUUGCUAAUCGUCGCAUG [Fam3.1 aminoacylation ribozyme variant]	1.03	0.922	0.957	0.804	0.667	0.923
AAGUUUGCUAAUGGGCGCAAG [Fam3.1 aminoacylation ribozyme variant]	0.937	0.695	1.08	1.5	0.784	0.874

Sequence	self-aminoacylation (biotinyl-Ile-oxazolone)	self-aminoacylation (biotinyl-Met-oxazolone)	self-aminoacylation (biotinyl-Leu-oxazolone)	self-aminoacylation (biotinyl-Trp-oxazolone)	self-aminoacylation (biotinyl-Phe-oxazolone)	self-aminoacylation (biotinyl-Val-oxazolone)
AAGUUUGCUAAUGGUCGCAAG [Fam3.1 aminoacylation ribozyme variant]	0.632	0.587	0.569	0.702	0.985	0.675
AAGUUUGCUAAUUGUCACAAG [Fam3.1 aminoacylation ribozyme variant]	1.1	0.983	0.991	1.15	1.08	0.901
AAGUUUGCUACAAGUCGCAAG [Fam3.1 aminoacylation ribozyme variant]	1.24	1.71	1.01	0.99	1.66	1.06
AAGUUUGCUACUAGACGCAAG [Fam3.1 aminoacylation ribozyme variant]	0.615	0.448	0.608	0.938	0.747	0.469
AAGUUUGCUACUAGUCGCAGG [Fam3.1 aminoacylation ribozyme variant]	1.5	1.24	1.29	1.53	1.2	1.39
AAGUUUGCUACUAGUCGCUAG [Fam3.1 aminoacylation ribozyme variant]	0.893	0.641	0.667	0.856	1.03	0.895
AAGUUUGCUAGGAGUCGCAAG [Fam3.1 aminoacylation ribozyme variant]	0.788	0.673	0.459	1.02	0.649	0.745
AAGUUUGCUAGUAGUCGCAAC [Fam3.1 aminoacylation ribozyme variant]	0.987	0.802	0.92	1.18	1.34	0.886
AAGUUUGCUAGUAGUCUCAAG [Fam3.1 aminoacylation ribozyme variant]	1.04	0.945	0.721	0.983	1.19	0.939
AAGUUUGCUAGUAGUUGCAAG [Fam3.1 aminoacylation ribozyme variant]	0.985	1.04	0.791	1.1	0.949	0.737
AAGUUUGCUAGUGGUCGCAAG [Fam3.1 aminoacylation ribozyme variant]	0.941	1.33	0.993	1.35	1.52	0.761
AAGUUUGCUAUGAGUCGCAAG [Fam3.1 aminoacylation ribozyme variant]	0.692	0.644	0.778	0.54	0.664	0.974
AAGUUUGCUAUUAGUAGCAAG [Fam3.1 aminoacylation ribozyme variant]	0.955	1.31	1.03	1.33	1.24	1.21
AAGUUUGCUCAUAGUCGAAAG [Fam3.1 aminoacylation ribozyme variant]	0.912	1.19	1.13	1.46	1.96	1.16
AAGUUUGCUCAUAGUCGCACG [Fam3.1 aminoacylation ribozyme variant]	1.05	0.778	0.892	1.22	1.64	1.14
AAGUUUGCUCAUAGUCGCCAG [Fam3.1 aminoacylation ribozyme variant]	1.24	1.49	1.35	1.45	0.939	1.19
AAGUUUGCUCAUAGUCGGAAG [Fam3.1 aminoacylation ribozyme variant]	0.755	0.755	0.893	1.12	1.78	0.75
AAGUUUGCUGAUAGUCGCAAC [Fam3.1 aminoacylation ribozyme variant]	1.25	0.997	1.2	0.93	2	1.22
AAGUUUGCUGAUAGUCGCACG [Fam3.1 aminoacylation ribozyme variant]	1.25	1.09	1.41	1.78	1.05	1.39
AAGUUUGCUGAUAGUGGCAAG [Fam3.1 aminoacylation ribozyme variant]	0.708	0.897	0.993	0.629	0.477	0.891
AAGUUUGCUGAUAUUCGCAAG [Fam3.1 aminoacylation ribozyme variant]	0.991	0.852	0.901	1.29	1.3	0.899
AAGUUUGCUUUUAGUCGCAAG [Fam3.1 aminoacylation ribozyme variant]	0.764	0.724	0.839	1.21	1.38	0.888
AAGUUUGGUAAUAGUCGCAAU [Fam3.1 aminoacylation ribozyme variant]	2.02	1.65	1.8	2.14	3.13	1.62
AAGUUUGUGAAUAGUCGCAAG [Fam3.1 aminoacylation ribozyme variant]	1.31	1.33	1.52	1.49	1.62	1.12
AAGUUUGUUAAUAGUCGCCAG [Fam3.1 aminoacylation ribozyme variant]	1.28	1.1	1.11	1.28	1.01	0.959
